From article PMC5656751
Results are given in words; binding and its absence hold for the method and conditions named. Binding seen in cells or lysates may run through a third protein. Some entries that bind do so weakly or less than the wild type. For some assays here: Where a sequence is shown, tags or fusion partners need not be part of it. Each block holds one binder with its values, some of them ahead of it.

Chains of the proteins cited; added tags and fusions are not shown.
UniProt Q9VK45: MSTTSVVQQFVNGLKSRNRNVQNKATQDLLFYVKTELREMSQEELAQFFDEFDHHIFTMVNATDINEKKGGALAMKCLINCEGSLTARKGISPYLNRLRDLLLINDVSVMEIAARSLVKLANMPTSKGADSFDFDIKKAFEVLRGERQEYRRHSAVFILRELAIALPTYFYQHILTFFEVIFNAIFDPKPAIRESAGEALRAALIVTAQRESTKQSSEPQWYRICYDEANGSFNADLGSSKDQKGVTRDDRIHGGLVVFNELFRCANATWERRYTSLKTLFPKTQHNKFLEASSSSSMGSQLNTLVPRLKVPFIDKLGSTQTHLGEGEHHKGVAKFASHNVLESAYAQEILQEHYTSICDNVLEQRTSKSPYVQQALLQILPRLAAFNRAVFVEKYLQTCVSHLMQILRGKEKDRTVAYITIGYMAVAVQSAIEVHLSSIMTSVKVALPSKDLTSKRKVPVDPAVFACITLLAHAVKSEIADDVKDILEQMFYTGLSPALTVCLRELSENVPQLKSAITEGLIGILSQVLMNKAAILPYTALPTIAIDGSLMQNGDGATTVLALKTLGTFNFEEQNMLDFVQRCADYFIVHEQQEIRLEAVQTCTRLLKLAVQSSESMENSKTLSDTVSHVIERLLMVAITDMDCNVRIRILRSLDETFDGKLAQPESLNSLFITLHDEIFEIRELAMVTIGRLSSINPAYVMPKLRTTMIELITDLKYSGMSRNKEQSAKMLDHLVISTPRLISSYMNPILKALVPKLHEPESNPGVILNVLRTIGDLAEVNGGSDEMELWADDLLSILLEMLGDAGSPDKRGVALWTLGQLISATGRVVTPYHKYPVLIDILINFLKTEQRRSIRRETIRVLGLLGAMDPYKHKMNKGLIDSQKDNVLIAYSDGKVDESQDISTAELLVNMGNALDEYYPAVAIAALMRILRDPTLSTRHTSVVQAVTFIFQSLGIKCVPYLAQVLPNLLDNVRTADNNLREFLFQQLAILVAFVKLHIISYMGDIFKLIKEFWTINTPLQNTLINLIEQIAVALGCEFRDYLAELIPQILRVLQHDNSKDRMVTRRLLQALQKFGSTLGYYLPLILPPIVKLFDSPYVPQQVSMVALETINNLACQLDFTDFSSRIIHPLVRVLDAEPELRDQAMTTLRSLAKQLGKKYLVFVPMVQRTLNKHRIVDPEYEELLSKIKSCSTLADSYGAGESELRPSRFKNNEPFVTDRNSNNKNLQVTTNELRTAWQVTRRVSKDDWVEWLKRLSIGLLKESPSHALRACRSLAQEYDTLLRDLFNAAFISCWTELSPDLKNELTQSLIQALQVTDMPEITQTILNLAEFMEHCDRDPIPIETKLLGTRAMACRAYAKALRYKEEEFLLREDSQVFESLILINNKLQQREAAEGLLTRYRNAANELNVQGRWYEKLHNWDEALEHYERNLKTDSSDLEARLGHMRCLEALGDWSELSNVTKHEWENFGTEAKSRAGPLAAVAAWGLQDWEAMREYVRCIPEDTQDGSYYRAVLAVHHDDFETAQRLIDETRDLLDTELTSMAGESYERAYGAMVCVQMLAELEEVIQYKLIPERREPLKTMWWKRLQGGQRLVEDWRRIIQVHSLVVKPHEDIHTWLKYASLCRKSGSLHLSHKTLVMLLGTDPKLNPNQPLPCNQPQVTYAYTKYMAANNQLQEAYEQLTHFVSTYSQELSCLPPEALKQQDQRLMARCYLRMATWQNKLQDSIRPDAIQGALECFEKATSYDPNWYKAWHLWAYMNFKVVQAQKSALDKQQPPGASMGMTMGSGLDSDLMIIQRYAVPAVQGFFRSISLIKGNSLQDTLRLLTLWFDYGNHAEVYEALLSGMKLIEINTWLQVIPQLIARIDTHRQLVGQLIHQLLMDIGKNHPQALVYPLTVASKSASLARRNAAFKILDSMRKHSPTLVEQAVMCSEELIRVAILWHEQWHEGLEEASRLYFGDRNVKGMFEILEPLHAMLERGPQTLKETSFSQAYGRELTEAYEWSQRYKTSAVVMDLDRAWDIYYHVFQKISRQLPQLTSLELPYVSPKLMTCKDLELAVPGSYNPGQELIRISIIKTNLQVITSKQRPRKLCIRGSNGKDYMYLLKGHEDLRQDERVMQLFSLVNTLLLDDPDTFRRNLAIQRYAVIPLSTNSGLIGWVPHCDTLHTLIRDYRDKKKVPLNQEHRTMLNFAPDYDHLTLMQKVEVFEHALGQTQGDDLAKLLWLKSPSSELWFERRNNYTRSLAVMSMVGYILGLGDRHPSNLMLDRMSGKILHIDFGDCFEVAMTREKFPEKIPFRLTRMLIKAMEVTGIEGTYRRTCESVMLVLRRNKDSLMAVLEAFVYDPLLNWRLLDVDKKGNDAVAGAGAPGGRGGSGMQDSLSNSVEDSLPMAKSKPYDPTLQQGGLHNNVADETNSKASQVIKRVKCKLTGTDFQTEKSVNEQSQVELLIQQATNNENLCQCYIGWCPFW

What was measured:
[1] = biological target: T1, HA-tagged Fork Head (FKH) (Drosophila) (UniProt P14734); assay: co-IP; S2 cells transiently transfected with FKH-HA and/or dAKT-FLAG, 15 min of insulin stimulation; anti-HA immunoprecipitates, immunoblotting with anti-HA or anti-FLAG
T1 sequence: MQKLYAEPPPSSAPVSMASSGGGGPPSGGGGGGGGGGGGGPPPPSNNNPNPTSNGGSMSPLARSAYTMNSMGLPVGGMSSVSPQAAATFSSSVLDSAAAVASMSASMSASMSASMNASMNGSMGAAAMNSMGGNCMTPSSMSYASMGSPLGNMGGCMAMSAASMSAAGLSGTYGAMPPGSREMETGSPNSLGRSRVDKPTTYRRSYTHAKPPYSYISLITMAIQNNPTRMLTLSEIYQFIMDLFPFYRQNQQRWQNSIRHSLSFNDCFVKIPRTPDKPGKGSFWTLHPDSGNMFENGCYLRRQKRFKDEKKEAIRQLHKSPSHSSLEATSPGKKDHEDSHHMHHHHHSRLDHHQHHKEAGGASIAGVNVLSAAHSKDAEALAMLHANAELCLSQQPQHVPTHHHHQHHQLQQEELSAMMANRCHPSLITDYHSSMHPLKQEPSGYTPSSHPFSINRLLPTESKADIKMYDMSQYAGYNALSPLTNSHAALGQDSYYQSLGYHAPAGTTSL

[2] = biological target: FLAG-tagged dTOR (Drosophila) (UniProt Q9VK45); assay: co-IP; S2 cells transiently transfected with dTOR-FLAG; anti-FLAG immunoprecipitates, immunoblotting with anti-FKH or anti-FLAG

binding [1]: binds
B1: FLAG-tagged dAKT (enzyme, UniProt Q8INB9 1-611)
chain: MNYLPFVLQRRSTVVASAPAPGSASRIPESPTTTGSNIINIIYSQSTHPNSSPTSGSAEKFSWQQSWPSRTSAAPTHDSGTMSINTTFDLSSPSVTSGHALTEQTQVVKEGWLMKRGEHIKNWRQRYFVLHSDGRLMGYRSKPADSASTPSDFLLNNFTVRGCQIMTVDRPKPFTFIIRGLQWTTVIERTFAVESELERQQWTEAIRNVSSRLIDVGEVAMTPSEQTDMTDVDMATIAEDELSEQFSVQGTTCNSSGVKKVTLENFEFLKVLGKGTFGKVILCREKATAKLYAIKILKKEVIIQKDEVAHTLTESRVLKSTNHPFLISLKYSFQTNDRLCFVMQYVNGGELFWHLSHERIFTEDRTRFYGAEIISALGYLHSQGIIYRDLKLENLLLDKDGHIKVADFGLCKEDITYGRTTKTFCGTPEYLAPEVLDDNDYGQAVDWWGTGVVMYEMICGRLPFYNRDHDVLFTLILVEEVKFPRNITDEAKNLLAGLLAKDPKKRLGGGKDDVKEIQAHPFFASINWTDLVLKKIPPPFKPQVTSDTDTRYFDKEFTGESVELTPPDPTGPLGSIAEEPLFPQFSYQGDMASTLGTSSHISTSTSLASMQ

binding [2]: binds
B2: endogenous FKH protein (protein, UniProt P14734 1-510)
chain: T1 sequence
